No constants are given. Whether binding was seen depends on the method and setting. In cells and extracts the contact can be indirect. Binding can be weak; no strength is given.

The test concerns the target T1, low-density lipoprotein receptor-related protein 3 (LRP3), endogenous in human frontal cortex (human (endogenous in frontal cortex)) (UniProt O75074).
T1 sequence: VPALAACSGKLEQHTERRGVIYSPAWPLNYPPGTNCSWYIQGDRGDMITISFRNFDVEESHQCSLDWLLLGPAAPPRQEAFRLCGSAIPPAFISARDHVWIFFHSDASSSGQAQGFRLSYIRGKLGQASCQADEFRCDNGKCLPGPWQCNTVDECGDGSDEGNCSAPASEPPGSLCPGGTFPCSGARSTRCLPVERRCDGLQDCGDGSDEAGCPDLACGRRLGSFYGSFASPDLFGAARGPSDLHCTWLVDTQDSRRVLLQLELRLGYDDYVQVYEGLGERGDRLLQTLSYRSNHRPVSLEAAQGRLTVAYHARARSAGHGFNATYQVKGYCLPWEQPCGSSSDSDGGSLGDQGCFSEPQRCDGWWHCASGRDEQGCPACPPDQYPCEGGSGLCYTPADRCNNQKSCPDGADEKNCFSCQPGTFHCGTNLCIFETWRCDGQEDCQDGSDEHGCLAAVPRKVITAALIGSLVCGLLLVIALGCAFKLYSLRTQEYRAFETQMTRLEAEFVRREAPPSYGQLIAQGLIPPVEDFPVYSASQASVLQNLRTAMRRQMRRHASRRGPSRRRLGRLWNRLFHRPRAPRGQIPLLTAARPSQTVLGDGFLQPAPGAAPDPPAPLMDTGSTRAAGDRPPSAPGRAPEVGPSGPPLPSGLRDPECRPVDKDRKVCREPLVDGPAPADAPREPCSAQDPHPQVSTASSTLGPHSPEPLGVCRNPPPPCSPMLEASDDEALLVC
Nature of the test: co-IP; human frontal cortex extracts (100 μL; MA and AD-related pathology cases) incubated 2.5 h at room temperature with magnetic beads coupled to an anti-C-terminal LRP3 antibody; mouse IgG as negative control; input, bound and unbound fractions blotted.

Take “amyloid precursor protein (APP), endogenous in human frontal cortex”: the binding entry is given as “binds”.

Source of the values: publication PMC8565065.
